At least one compound was matched to its structure with a doubt left.
Molecular target: T1, GFP-AR (Homo sapiens, UniProt P10275)
T1 construct: expressed in transfected cells; also PC3 and LNCaP (transient)
T1 sequence (P10275 1-920): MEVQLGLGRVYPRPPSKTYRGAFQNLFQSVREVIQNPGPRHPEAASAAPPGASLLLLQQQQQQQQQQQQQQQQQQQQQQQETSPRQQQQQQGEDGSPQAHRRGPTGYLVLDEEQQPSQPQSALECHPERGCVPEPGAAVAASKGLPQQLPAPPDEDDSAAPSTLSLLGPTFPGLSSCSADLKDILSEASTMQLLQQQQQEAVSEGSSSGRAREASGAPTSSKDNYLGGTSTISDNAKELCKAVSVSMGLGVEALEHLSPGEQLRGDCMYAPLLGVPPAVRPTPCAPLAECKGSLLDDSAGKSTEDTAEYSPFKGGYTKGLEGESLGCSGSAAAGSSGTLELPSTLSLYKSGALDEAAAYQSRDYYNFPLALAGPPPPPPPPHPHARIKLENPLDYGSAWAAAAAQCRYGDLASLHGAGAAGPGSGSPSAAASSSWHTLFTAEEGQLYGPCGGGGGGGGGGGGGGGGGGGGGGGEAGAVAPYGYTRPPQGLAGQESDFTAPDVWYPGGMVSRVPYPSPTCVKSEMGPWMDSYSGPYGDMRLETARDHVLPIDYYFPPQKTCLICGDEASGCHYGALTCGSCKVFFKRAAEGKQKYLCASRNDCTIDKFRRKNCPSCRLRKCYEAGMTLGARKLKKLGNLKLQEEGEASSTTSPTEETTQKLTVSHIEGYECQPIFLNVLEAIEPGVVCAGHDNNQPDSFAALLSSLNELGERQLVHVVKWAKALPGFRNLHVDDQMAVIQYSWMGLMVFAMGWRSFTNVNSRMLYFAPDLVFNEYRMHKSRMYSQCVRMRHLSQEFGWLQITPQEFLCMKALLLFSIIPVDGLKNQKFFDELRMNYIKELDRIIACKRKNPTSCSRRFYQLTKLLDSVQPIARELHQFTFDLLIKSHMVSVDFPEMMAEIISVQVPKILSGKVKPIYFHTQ
Assay: Localization of transiently transfected GFP-AR by fluorescence microscopy
Type: cell-based
Settings: C4-2 cells; data not shown
Procedure: FIGS. 2A and 2B. Localization of GFP-AR in AR-negative PC3, androgen-sensitive LNCaP, and CRPC C4-2 cells. […] PC3, LNCaP, and C4-2 cells were transfected with GFP-AR and localization was assessed in ligand-free conditions or in the presence of mibolerone by fluorescence microscopy within 24 hours of transfection. The results in FIG. 2B are from five transfections for each cell line in the absence of androgen. At least 50 cells were counted after each transfection. Error bars represent ±SEM.
FIGS. 3A and 3B. […] FIG. 3A. […] Localization was assessed by fluorescence microscopy 4 hours after treatment. FIG. 3B.
FIGS. 6A, 6B, 6C and 6D. FIG. 6A. […] FIG. 6B. […] C4-2 cells were transfected with GFP-AR and subcellular localization of GFP-AR was determined after overnight treatment using fluorescent microscopy. […] Quantitative analysis of results in FIG. 6B. […] Endogenous AR was detected by immunofluorescent staining using AR antibody N-20 (Santa Cruz Biotechnology). […]
A prerequisite for AR transcriptional activity is its nuclear localization. To determine whether the subcellular localization of AR was altered during the progression to castration-resistance, AR-negative PC3 prostate cancer cells, androgen-sensitive LNCaP cells and castration-resistant C4-2 cells were transfected with AR tagged to green fluorescent protein (GFP) and localization was assessed by fluorescence microscopy in hormone-free conditions. […]

For `COC1=C2C[C@@H](C)C[C@H](OC)[C@H](O)[C@@H](C)/C=C(\C)[C@H](OC(N)=O)[C@@H](OC)/C=C\C=C(/C)C(=O)NC(=CC1=O)C2=O` [geldanamycin], the “nuclear localization of GFP-AR” value was “prevented”.
